The whole screen tested about 330,000 compounds, of which about 20 (0.006%) were called active. Inconclusive results, whose numbers are uncertain, are shown with a selection of clear calls. Calls follow the shape of the dose curve; as a rule, active = well fitted inhibition curve with a large enough effect; inconclusive = small, poorly fitted or top-dose-only effect, or effect the other way; inactive = flat fitted curve, though single readings scatter. Where the call is inconclusive, the potency comes from a doubtful curve fit.
molecular target: Protein phosphatase EYA2 (Homo sapiens) (UniProt O00167); assay: qHTS Assay for Inhibitors of the Phosphatase Activity of Eya2; conditions: recombinant Eya2, OMFP fluorescence dephosphorylation (OMFP is methylfluorescein phosphate); activity, negative = inhibition: at 76.9 µM (top of the series) unless noted
In short: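 Eya2 protein (added as 0.2 uM solution) was preincubated with compound for 10 min at ambient temperature in 50 mM HEPES pH 7.5, 50 mM NaCl, 5 uM MgCl2, 0.05% BSA, 1 mM DTT. OMFP (added at 50 uM) then reacted 10 min; fluorescence read at 485/525 nm.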
% is scaled to controls: 0 for no effect and ±100 for the full control effect; potency is read from the fitted curve at half-maximal effect.

Chains of the proteins cited; added tags and fusions are not shown. Lines headed by an entry give the natural chain unless they say otherwise; changes in a name come on top.
UniProt O00167: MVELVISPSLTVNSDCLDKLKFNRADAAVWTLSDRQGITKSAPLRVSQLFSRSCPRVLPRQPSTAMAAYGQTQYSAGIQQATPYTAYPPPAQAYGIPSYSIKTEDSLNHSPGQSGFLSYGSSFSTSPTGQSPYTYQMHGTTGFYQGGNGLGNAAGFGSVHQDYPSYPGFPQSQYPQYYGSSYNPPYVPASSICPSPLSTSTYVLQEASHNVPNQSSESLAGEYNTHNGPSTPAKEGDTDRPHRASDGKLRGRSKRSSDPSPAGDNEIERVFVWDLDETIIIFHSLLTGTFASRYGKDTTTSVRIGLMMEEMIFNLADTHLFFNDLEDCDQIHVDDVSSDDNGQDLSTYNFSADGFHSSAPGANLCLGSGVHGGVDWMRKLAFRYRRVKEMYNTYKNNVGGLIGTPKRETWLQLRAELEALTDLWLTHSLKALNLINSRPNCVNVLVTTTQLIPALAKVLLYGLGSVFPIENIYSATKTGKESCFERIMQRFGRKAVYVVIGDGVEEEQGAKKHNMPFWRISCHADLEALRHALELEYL

| SMILES | Potency | activity, negative = inhibition |
| --- | --- | --- |
| O=C(Nc1ccc(F)cc1F)Nc1csc2ccccc12 | inconclusive: 100 µM [inhibitor, single point] | – |
| CCOc1ccc(NC(=O)CN2CCN(C(=O)c3ccco3)CC2)cc1S(=O)(=O)N1CCCC1 | inconclusive: 126 µM [inhibitor, single point] | – |
| COc1ccc(CCNC(=O)COC(=O)COc2ccc(Cl)cc2)cc1OC | inconclusive: 501 µM [inhibitor, single point] | – |
| CN(Cc1ccc(F)cc1)Cc1nc(CCc2ccccc2)no1 | inconclusive: 100 µM [inhibitor, single point] | – |
| Cc1cc(NS(=O)(=O)c2ccc(NC(=O)c3cnc(Cl)c(Cl)c3)cc2)nc(C)n1 | inactive | – |
| CCOC(=O)C1(CCOc2ccccc2)CCN(Cc2ccc(C#CCCO)cc2)CC1 | inconclusive: 20 µM [inhibitor, single point] | – |
| COC(=O)c1ccc(Cl)cc1NC(=O)/C=C/c1ccc(C)o1 | inactive | – |
| COCCNc1nc2ccccc2n1CC(=O)c1ccc(OC)c(OC)c1 | inconclusive: 20 µM [inhibitor, single point] | – |
| N#Cc1c(N)nc2c(c1-c1ccc(F)cc1)CCC2 | – | inconclusive: 31.8% [activator] |
| Cc1ccc(S(=O)(=O)N2CCN(c3ncnc4sccc34)CC2)cc1C | inactive | – |
| O=C(CNCc1ccccc1Cl)Nc1ccc2c(c1)OCCO2 | inconclusive: 200 µM [inhibitor, partial curve, poor fit] | – |
| COc1ccc(OCCn2cnc(Cl)c2Cl)cc1 | inconclusive: 251 µM [inhibitor, partial curve] | – |
| Fc1ccccc1-c1ccc(/C=N/Nc2nc3ccccc3[nH]2)o1 | inactive | – |
| Cc1cc(CN(C)Cc2cn(C)nc2-c2ccc(Oc3ccccc3)cc2)on1 | inconclusive: 89.1 µM [inhibitor, single point] | – |
| CCCN1CCN(C(=O)CCS(=O)(=O)c2cc3c(cc2Cl)NC(=O)CO3)CC1 | inconclusive: 25.1 µM [inhibitor, single point] | – |
| O=C(Nc1csnn1)c1csnn1 | inconclusive: 89.1 µM [inhibitor, single point] | – |
| Cc1cccc(-n2c(C)cc(/C=C3\C(=N)N4N=C(CC(C)C)SC4=NC3=O)c2C)c1 | inactive | – |
| CCOC(=O)c1ccc(NS(=O)(=O)c2ccc3c(c2)n(C)c(=O)n3C)cc1 | inconclusive: 158 µM [inhibitor, single point] | – |
| Cc1cccc(NC2=C(NCCO)C(=O)c3ccccc3C2=O)c1 | inactive | – |
| CC(NC(=O)c1c(Cl)cnn1C)C1CCCO1 (stereo not drawn) | inconclusive: 251 µM [inhibitor, partial curve, poor fit] | – |
| CCOC(=O)CCNC(=O)CCc1nnc(CCCc2ccccc2)o1 | inconclusive: 112 µM [inhibitor, single point] | – |
| COc1ccc(C(=O)NNC(=O)C(=O)N2CCCCC2)cc1OC | inactive | – |
| CCCC(=O)C1=C(c2ccccc2)C(C#N)(C#N)C(C#N)=C1N | inactive | – |

| SMILES | Potency | activity, negative = inhibition |
| --- | --- | --- |
| Cc1ccc(C2(C)NC(=O)N(CC(=O)NNC(=O)c3ccoc3C)C2=O)cc1 (stereo not drawn) | inactive | – |
| CCCCS(=O)(=O)Nc1ccc2ncn(C)c(=O)c2c1 | inactive | – |
| Cn1c2ccccc2c2c(C(=O)N3CCN(c4ccccn4)CC3)cn(C3CCCC3)c(=O)c21 | inactive | – |
| Cc1ccc(C(=O)N2CCCC(c3ccccc3)=N2)cc1 | inconclusive: 100 µM [inhibitor, single point] | – |
| O=C1C=C(NC(=O)Nc2ccc(Cl)c(Cl)c2)CCC1 | inactive | – |
| COc1ccc(OC)c(-c2nnc3n2N=C(c2ccc(OC)c(OCC4CC4)c2)CS3)c1 | inconclusive: 50.1 µM [inhibitor, single point] | – |
| CCCNC(=O)c1nc(C)n(-c2ccc([N+](=O)[O-])cc2)n1 | inconclusive: 39.8 µM [inhibitor, partial curve, poor fit] | – |
| O=C(CCS(=O)(=O)Cc1ccccc1)Nc1ccc2c(c1)OCCO2 | inconclusive: 100 µM [inhibitor, single point] | – |
| COc1ccc(OC2C(=O)N(Cc3ccc4c(c3)OCO4)C2c2sccc2C)cc1 (stereo not drawn) | inconclusive: 89.1 µM [inhibitor, single point] | – |
| CC(C)CN(C(=O)COC(=O)CSc1ccc(Br)cc1)C1CCS(=O)(=O)C1 (stereo not drawn) | inconclusive: 70.8 µM [inhibitor, single point] | – |
| Cc1cccc(N2CCN(Cc3ccc([N+](=O)[O-])o3)CC2)c1C | inconclusive: 22.4 µM [inhibitor, single point] | – |
| CC1(C)CC(=O)C2=C(C1)O[C@@]1(CCCCN3C(=O)c4ccccc4C3=O)Cc3ccccc3C2O1 | – | inactive: -7.51% [at 15.4 µM] |
| O=C(O)CSc1nc2ccccc2n1Cc1ccccc1 | inactive | – |
| COc1ccc(CN2CCN(C(=O)Cn3c(=O)oc4cc(Cl)ccc43)CC2)c(OC)c1OC | – | inconclusive: -31.8% [inhibitor] |
| Cc1ccc(-c2nc3ccccc3[nH]c2=O)cc1 | inconclusive: 22.4 µM [inhibitor, single point] | – |
| Cc1nnc(Nc2ccc(S(N)(=O)=O)cc2)c2ccccc12 | inconclusive: 89.1 µM [inhibitor, single point] | – |
| Cc1ccc(Cn2cc(/C=N/NC(=O)Cc3nnc(NC(=O)c4ccc(C)cc4)s3)c3ccccc32)cc1 | inactive | – |
| O=C(O)c1ccccc1OCC1CCCO1 (stereo not drawn) | inconclusive: 1260 µM [inhibitor, partial curve] | – |
| Cc1cccc2sc(N(CCCN(C)C)C(=O)c3ccc(C(=O)c4ccccc4)cc3)nc12 | inactive | – |
| Cn1nc(-c2ccc(Cl)cc2)nc2c(=O)n(C)c(=O)nc1-2 | inconclusive: 89.1 µM [inhibitor, partial curve, poor fit] | – |
| CCOC(=O)c1cccc(NC(=O)CSc2nc3ccccc3c(=O)n2CCOC)c1 | – | inconclusive: 47.2% [activator] [at 15.4 µM] |
| COCCNC(=O)c1c[nH]c2ccc(S(=O)(=O)N3CCOCC3)cc2c1=O | inconclusive: 112 µM [inhibitor, single point] | – |
| COc1cc(C(=O)OCC(C)=O)c([N+](=O)[O-])cc1OC | inconclusive: 17.8 µM [inhibitor, single point] | – |

Random excerpt: 3 records from the list

| SMILES | Potency | activity, negative = inhibition |
| --- | --- | --- |
| COC(=O)c1ccc(Cl)cc1NC(=O)/C=C/c1ccc(C)o1 | inactive | – |
| Cc1ccc(Cn2cc(/C=N/NC(=O)Cc3nnc(NC(=O)c4ccc(C)cc4)s3)c3ccccc32)cc1 | inactive | – |
| Cc1ccc(-c2nc3ccccc3[nH]c2=O)cc1 | inconclusive: 22.4 µM [inhibitor, single point] | – |

Next results

| SMILES | Potency | activity, negative = inhibition |
| --- | --- | --- |
| C=CC[C@@H](CC(=O)N[C@@H](CO)Cc1ccccc1)C(=O)N[C@H](COC(=O)[C@@H](CC=C)CC(=O)OC(C)(C)C)Cc1ccccc1 | inconclusive: 100 µM [inhibitor, partial curve] | – |
| Cc1ccccc1C(=O)/C=C1/c2ccccc2CC(C)(C)N1C | inconclusive: 25.1 µM [inhibitor, single point] | – |
| CCOC(=O)Cc1csc(NC(=O)c2cc(C)cc(C)c2)n1 | inconclusive: 50.1 µM [inhibitor, partial curve] | – |
| CC(C)c1ccc(NC(=O)NC2(C(=O)NCc3cccnc3)CCCCC2)cc1 | inconclusive: 20 µM [inhibitor, single point] | – |
| COc1ccc(Nc2c([N+](=O)[O-])ccc3c2=NC2(CCCCC2)N=3)cc1 | inactive | – |
| COc1ccccc1-n1c(SC)nc2c(sc(=S)n2-c2ccccc2)c1=O | inconclusive: 22.4 µM [inhibitor, single point] | – |
| O=C(O)c1cccc(Cn2c(Cl)c(/C=N/NC(=O)c3ccccc3Cl)sc2=O)c1 | inconclusive: 22.4 µM [inhibitor, single point] | – |
| CC(=O)Nc1ccc(S(=O)(=O)Nc2nc3ccccc3nc2Nc2cccc(S(N)(=O)=O)c2)cc1 | inconclusive: 158 µM [inhibitor, single point] | – |
| Cc1ccc(C(=O)Nc2nc(-c3ccccn3)cs2)o1 | inconclusive: 1260 µM [inhibitor, partial curve, poor fit] | – |
| Cc1ccc(C(C[N+](=O)[O-])n2nc(C)cc2C)cc1 (stereo not drawn) | inactive | – |
| CC(C)c1ccc(/C=N/NC(=O)c2ccc(-n3cnnn3)cc2)cc1 | inconclusive: 79.4 µM [inhibitor, single point] | – |
| Cc1ccc(NC(=O)COC(=O)C2=NN(c3ccccc3)C(=O)CC2)c(Br)c1 | inconclusive: 89.1 µM [inhibitor, single point] | – |
| NCC(=O)c1cccc2ccc[n+]([O-])c12 | inconclusive: 100 µM [inhibitor, single point] | – |
| CS(=O)(=O)c1ccc2nc(NC(=O)c3ccc(NS(=O)(=O)c4cccc([N+](=O)[O-])c4)cc3)sc2c1 | inconclusive: 89.1 µM [inhibitor, single point] | – |
| Cc1ccc(S(=O)(=O)CCC(=O)OCC(=O)c2cc(C)ccc2C)cc1 | inactive | – |
| O=c1c2ccccc2nc2n1C(CSc1ccc(F)cc1)CS2 (stereo not drawn) | inconclusive: 178 µM [inhibitor, partial curve, poor fit] | – |
| CC(C)(C)C1CCC(=NNC(=S)Nc2cccnc2)CC1 (stereo not drawn) | inactive | – |
| CCC(=O)N1CCc2cc(S(=O)(=O)Nc3ccccc3C)ccc21 | inconclusive: 20 µM [inhibitor, single point] | – |
| N#C/C(=C/c1ccc(N2CCOCC2)o1)C(=O)Nc1ccccc1 | – | inconclusive: 46.3% [activator] |
| COc1ccc(OC)c(NC(=O)COC(=O)[C@H](Cc2ccccc2)NC(=O)c2ccco2)c1 | inconclusive: 25.1 µM [inhibitor, partial curve] | – |
| COc1ccc(CCC(=O)N(c2nnc(-c3cccnc3)s2)C(C)C)cc1 | inconclusive: 100 µM [inhibitor, single point] | – |
| Cc1ccc2oc(=O)c3cc(C(=O)NCc4ccco4)sc3c2c1 | inconclusive: 17.8 µM [inhibitor, single point] | – |

Reference: PubChem BioAssay AID488837 (National Center for Advancing Translational Sciences (NCATS), 2010)
